Test results from publication PMC8636505.

Columns and labels:
[1] = target: T1, recombinant PAG-7 (bovine) (UniProt A7Y0Q3); assay: dot blot (ST-HRP, ECL); settings: recombinant protein; label: biotin; single-stranded DNA
T1 sequence (looked up, limits assumed): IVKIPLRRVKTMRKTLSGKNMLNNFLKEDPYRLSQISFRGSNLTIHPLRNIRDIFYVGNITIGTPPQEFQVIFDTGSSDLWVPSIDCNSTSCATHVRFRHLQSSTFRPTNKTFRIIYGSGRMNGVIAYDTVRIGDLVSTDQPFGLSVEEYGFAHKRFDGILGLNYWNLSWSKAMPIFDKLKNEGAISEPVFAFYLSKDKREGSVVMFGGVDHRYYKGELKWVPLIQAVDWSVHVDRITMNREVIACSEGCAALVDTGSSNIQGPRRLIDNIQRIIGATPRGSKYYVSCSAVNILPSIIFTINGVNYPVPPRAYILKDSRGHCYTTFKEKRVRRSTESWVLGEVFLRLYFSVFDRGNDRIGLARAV

PAG-7 peptide (bovine) = PAG-7 peptide (bovine) (UniProt A7Y0Q3); assay: dot blot (ST-HRP, ECL/DAB); settings: label: biotin; single-stranded DNA
PAG-18 peptide (bovine) = PAG-18 peptide (bovine) (UniProt Q9TTV6); assay: dot blot (ST-HRP, ECL/DAB); settings: label: 5' biotin; single-stranded DNA
[2] = target: T2, recombinant PAG-18 (bovine) (UniProt Q9TTV6); assay: dot blot (ST-HRP, ECL/DAB); settings: recombinant protein; label: 5' biotin; single-stranded DNA
T2 sequence (looked up, limits assumed): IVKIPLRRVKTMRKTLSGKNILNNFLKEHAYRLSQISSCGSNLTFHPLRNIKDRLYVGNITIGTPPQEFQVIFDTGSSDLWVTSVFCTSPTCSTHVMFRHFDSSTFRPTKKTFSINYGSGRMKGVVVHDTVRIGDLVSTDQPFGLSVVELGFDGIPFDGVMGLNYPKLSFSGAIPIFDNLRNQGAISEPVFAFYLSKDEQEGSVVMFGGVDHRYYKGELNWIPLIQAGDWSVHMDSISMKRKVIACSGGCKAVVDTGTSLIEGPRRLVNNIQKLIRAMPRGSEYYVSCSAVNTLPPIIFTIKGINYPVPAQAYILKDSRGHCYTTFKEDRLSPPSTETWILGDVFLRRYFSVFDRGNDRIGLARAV

## TAGGGAAGAGAAGGACATATGATGCGTATTACCTAGTTTGAGTCCCATGAAACGATGCACTGGTTGACTAGTACATGACCACTTGA [PAG7_47]
[1]
  binding result: binds
PAG-7 peptide (bovine)
  binding result: binds

## TAGGGAAGAGAAGGACATATGATTATCATTCCTTTTAGTGGAGACACACGCATCTCGTGTGCTTTGACTAGTACATGACCACTTGA [PAG18_91]
PAG-18 peptide (bovine)
  binding result: binds
[2]
  binding result: binds

For at least one entry, the source does not settle the construct or the ends of the probe. At least one verdict rests on a figure or table, not on a statement of the authors. For some of these results: Protein sequences can lack the tags named with them.
